Results are given in words; binding and its absence hold for the method and conditions named. In cells and extracts the contact can be indirect. Some entries that bind do so weakly or less than the wild type. Sequences can lack the tags named with a protein.
Biological target: Flag-Hif1a, Q16665
Assay: co-IP; 293T cells co-transfected with Flag-Hif1a and HA-Nrf2; Co-IP with Flag and HA antibodies
Conditions: remark: other sources report otherwise

binding: binds
B1: HA-Nrf2, Q16236 1-605 (protein)
chain: MMDLELPPPGLPSQQDMDLIDILWRQDIDLGVSREVFDFSQRRKEYELEKQKKLEKERQEQLQKEQEKAFFAQLQLDEETGEFLPIQPAQHIQSETSGSANYSQVAHIPKSDALYFDDCMQLLAQTFPFVDDNEVSSATFQSLVPDIPGHIESPVFIATNQAQSPETSVAQVAPVDLDGMQQDIEQVWEELLSIPELQCLNIENDKLVETTMVPSPEAKLTEVDNYHFYSSIPSMEKEVGNCSPHFLNAFEDSFSSILSTEDPNQLTVNSLNSDATVNTDFGDEFYSAFIAEPSISNSMPSPATLSHSLSELLNGPIDVSDLSLCKAFNQNHPESTAEFNDSDSGISLNTSPSVASPEHSVESSSYGDTLLGLSDSEVEELDSAPGSVKQNGPKTPVHSSGDMVQPLSPSQGQSTHVHDAQCENTPEKELPVSPGHRKTPFTKDKHSSRLEAHLTRDELRAKALHIPFPVEKIINLPVVDFNEMMSKEQFNEAQLALIRDIRRRGKNKVAAQNCRKRKLENIVELEQDLDHLKDEKEKLLKEKGENDKSLHLLKKQLSTLYLEVFSMLRDEDGKPYSPSEYSLQQTRDGNVFLVPKSKKPDVKKN
